Reference: article PMC7925594
No constants are given. Whether binding was seen depends on the method and setting. In cells and extracts the contact can be indirect. Some entries that bind do so weakly or less than the wild type. For some of these results: Sequences can lack the tags named with a protein.

Protein sequences, listed by entry. Tags and fused reporters are not part of them.
UniProt O88522: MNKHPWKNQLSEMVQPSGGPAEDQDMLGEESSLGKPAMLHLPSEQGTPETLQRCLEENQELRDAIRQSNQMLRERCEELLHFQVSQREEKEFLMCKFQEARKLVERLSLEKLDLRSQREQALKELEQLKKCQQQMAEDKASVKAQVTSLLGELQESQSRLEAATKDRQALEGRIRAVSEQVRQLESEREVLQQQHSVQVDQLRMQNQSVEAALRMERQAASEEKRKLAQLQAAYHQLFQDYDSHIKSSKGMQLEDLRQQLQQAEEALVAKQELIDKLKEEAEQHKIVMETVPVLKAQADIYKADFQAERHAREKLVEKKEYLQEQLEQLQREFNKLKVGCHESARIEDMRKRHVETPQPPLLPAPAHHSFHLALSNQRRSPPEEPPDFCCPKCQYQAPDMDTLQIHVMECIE
UniProt Q9Y6K9: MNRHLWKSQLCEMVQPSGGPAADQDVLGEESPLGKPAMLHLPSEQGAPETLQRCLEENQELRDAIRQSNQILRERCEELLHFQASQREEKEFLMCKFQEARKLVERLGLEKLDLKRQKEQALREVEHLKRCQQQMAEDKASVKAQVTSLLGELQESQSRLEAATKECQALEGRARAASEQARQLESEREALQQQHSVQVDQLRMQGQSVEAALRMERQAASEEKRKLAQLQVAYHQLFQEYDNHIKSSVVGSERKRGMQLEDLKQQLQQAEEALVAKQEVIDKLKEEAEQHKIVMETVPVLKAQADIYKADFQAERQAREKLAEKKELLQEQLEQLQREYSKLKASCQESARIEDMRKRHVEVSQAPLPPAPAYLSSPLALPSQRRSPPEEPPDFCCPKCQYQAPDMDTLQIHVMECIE

Columns and labels:
[1] = biological target: T1, HA-N4BP1 424-aa cleavage product (truncation mutant ending at D424) (not stated (printed residue numbers fit the human protein)) (UniProt O75113); experiment: co-IP; HA-N4BP1 or truncation mutants and Flag-NEMO expressed in HEK293T cells; immunoprecipitation with anti-HA, immunoblot with anti-Flag
T1 sequence: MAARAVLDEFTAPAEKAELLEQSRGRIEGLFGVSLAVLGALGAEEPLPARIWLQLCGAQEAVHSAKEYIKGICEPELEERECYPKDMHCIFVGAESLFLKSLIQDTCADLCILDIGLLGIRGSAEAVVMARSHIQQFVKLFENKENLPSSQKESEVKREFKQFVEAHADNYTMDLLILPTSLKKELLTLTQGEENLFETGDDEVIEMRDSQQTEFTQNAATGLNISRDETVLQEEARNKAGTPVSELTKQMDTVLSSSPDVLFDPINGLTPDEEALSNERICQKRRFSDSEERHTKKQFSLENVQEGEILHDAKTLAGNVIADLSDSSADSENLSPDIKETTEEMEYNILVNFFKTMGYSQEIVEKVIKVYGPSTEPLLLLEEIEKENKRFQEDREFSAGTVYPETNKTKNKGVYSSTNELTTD

[2] = biological target: T2, HA-N4BP1 490-aa cleavage product (truncation mutant ending at D490) (not stated (printed residue numbers fit the human protein)) (UniProt O75113); experiment: as above
T2 sequence: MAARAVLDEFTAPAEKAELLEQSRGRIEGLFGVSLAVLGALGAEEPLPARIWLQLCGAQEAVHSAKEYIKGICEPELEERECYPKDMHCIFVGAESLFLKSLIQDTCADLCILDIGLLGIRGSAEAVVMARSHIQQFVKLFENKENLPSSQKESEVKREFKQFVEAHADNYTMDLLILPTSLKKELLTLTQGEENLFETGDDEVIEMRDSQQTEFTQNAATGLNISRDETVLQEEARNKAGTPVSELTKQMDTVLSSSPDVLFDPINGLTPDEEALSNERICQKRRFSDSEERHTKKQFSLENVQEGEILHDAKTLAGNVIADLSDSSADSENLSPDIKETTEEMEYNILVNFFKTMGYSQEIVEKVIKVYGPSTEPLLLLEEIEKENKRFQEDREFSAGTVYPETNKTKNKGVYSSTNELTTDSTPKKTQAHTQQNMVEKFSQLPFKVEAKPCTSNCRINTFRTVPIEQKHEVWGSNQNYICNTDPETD

[3] = biological target: T3, HA-tagged N4BP1 (full-length) (not stated (printed residue numbers fit the human protein)) (UniProt O75113); experiment: as above
T3 sequence: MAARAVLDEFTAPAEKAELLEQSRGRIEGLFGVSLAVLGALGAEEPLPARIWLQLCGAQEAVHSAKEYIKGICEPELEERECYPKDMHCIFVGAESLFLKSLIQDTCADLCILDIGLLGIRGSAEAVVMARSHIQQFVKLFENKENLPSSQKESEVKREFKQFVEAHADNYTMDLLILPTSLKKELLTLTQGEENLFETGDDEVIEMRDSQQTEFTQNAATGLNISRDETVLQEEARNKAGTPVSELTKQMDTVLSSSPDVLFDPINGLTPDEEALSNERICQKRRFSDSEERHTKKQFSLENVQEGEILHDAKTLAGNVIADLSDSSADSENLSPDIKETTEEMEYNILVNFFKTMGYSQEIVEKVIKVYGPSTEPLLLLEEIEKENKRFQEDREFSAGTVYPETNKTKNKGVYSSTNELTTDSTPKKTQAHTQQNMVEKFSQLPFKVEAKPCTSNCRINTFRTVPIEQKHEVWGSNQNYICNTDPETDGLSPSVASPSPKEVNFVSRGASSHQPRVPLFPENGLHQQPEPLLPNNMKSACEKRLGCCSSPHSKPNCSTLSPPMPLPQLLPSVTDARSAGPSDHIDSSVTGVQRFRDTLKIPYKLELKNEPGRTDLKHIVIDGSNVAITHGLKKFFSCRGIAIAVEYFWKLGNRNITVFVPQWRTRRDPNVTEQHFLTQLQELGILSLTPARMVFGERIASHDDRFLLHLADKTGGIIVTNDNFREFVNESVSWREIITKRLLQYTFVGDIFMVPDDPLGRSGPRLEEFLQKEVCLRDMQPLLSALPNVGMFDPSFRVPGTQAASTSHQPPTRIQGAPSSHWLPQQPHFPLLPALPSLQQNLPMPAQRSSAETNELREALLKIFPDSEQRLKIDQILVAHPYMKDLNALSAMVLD

[4] = biological target: NEMO, endogenous in mouse peritoneal macrophages (mouse (endogenous in peritoneal macrophages)) (UniProt O88522); experiment: cross-linking; wild-type and N4bp1-/- peritoneal macrophages, stimulated with Pam3CSK4 or not, treated with 2 mM disuccinimidyl suberate (DSS) for 10 min before collection; immunoprecipitation with anti-NEMO (rabbit IgG control), immunoblot with anti-NEMO

Substance	binding [1]	binding [2]	binding [3]	binding [4]
Flag-tagged NEMO (from UniProt Q9Y6K9 1-419)	binds	binds	binds	–
NEMO, endogenous in mouse peritoneal macrophages (from UniProt O88522 1-412)	–	–	–	binds
